# The campaign covered roughly 320,000 compounds. About 22,000 (6.9%) were called active. Inconclusive means that the source gave no clear call. Such entries were picked first, then a sample of the others. Calls come from the whole dose curve; as a rule, active = well fitted inhibition curve with a large enough effect; inconclusive = small, poorly fitted or top-dose-only effect, or another doubt; inactive = no such curve, though single readings can be large or run the other way. A potency beside an inconclusive call is a rough fit, not a confirmed value.
# Experiment: Primary qHTS for delayed death inhibitors of the malarial parasite plastid, 96 hour incubation
# Settings: P. falciparum luciferase reporter growth; series mostly up to 28.7 µM
# How it was run: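 Infected RBCs, 2% Hct / 0.05% parasitemia final; luciferase-reporter P. falciparum; cpd 96 h, 37 C, 5% CO2; luciferase detection reagent; luminescence.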
# Potency is the fitted concentration of half-maximal effect.
row,SMILES,Potency
1,CCn1c(SCC(=O)Nc2ccc(OC)c(OC)c2)nnc1-c1cccs1,"inconclusive: 3.7 µM [inhibitor, partial curve, poor fit]"
2,Cc1ccccc1OCCSc1nc(N(C)C)nc(N(C)C)n1,"inconclusive: 13.1 µM [inhibitor, partial curve, poor fit]"
3,O=C(/C=C/Nc1ccccc1OC(F)(F)F)C(F)(F)F,inactive
4,CO[C@H]1/C=C/O[C@@]2(C)Oc3c(C)c(O)c4c(O)c(c5c(c4c3C2=O)NC2(CCN(CC(C)C)CC2)N=5)=NC(=O)/C(C)=C\C=C\[C@H](C)[C@H](O)[C@@H](C)[C@@H](O)[C@@H](C)[C@H](OC(C)=O)[C@@H]1C,active: 5.36 µM
5,CCNC(=S)/N=C(/Nc1ccccc1)Nc1nc(C)cc(C)n1,"inconclusive: 10.4 µM [inhibitor, partial curve]"
6,COC(C[C@@H](O)C[C@H](O)[C@@H](C)OCc1ccccc1)OC,inactive
7,O=c1[nH]c(Cc2ccccn2)nc2scc(-c3ccc(Cl)cc3)c12,"inconclusive: 0.185 µM [inhibitor, full curve, poor fit]"
8,CN(Cc1nc(-c2cnccn2)no1)Cc1n[nH]c2c1CCCC2,inactive
9,CC1Cc2ccccc2N1C(=O)CSc1nnc(-c2ccc(S(=O)(=O)N3CCOCC3)cc2)n1C (stereo not drawn),"inconclusive: 18.5 µM [inhibitor, single point]"
10,COc1ccc(NS(=O)(=O)c2ccc(NC(C)=O)cc2)c(OC)c1,"inconclusive: 5.86 µM [inhibitor, partial curve]"
11,CC1(C(=O)N(CC(=O)NC2CCCC2)Cc2ccc(Cl)cc2)CC(=O)N=C2C=CC=CN21 (stereo not drawn),inactive
12,CCc1cc(=O)[nH]c(SCc2ccc(C)cc2)n1,inactive
13,COc1ccc(C)cc1Nc1n[n+](C)c(-c2ccc(C(=O)O)cc2)s1,inactive
14,Cn1c(=O)n(C)c2cc(NC(=O)COc3ccc(F)cc3F)ccc21,"inconclusive: 11.7 µM [inhibitor, single point]"
15,CCn1c(-c2sc(-c3ccccc3)nc2C)n[nH]c1=S,inactive
16,c1ccc(N(c2ccccc2)c2nc(N3CCCC3)nc(-n3ccnc3)n2)cc1,"inconclusive: 8.28 µM [inhibitor, single point]"
17,Cc1cccc(N2CC(O)=C(c3nc4ccccc4n3C)C2=N)c1,"inconclusive: 4.15 µM [inhibitor, single point]"
18,CC1(C)CC(=O)c2cnc(NC(=O)CSC(=S)N3CCCCC3)nc2C1,"inconclusive: 4.15 µM [inhibitor, single point]"
19,CCCNC(=S)NC1CCCC1,"inconclusive: 10.4 µM [inhibitor, single point]"
20,C=CCSC1=N/C(=C\c2ccc3c(c2)OCO3)C(=O)S1,active: 0.415 µM
21,O=c1[nH]c(/C=C/c2cccc([N+](=O)[O-])c2)c([N+](=O)[O-])c(=O)[nH]1,"inconclusive: 18.5 µM [inhibitor, single point]"
22,Cc1ccc(S(=O)(=O)N(C)c2ccc(OC(=O)CN3C(=O)NC4(CCCC4)C3=O)cc2)cc1,"inconclusive: 18.5 µM [inhibitor, single point]"
23,CCN(CC(=O)Nc1ccccc1C(F)(F)F)C(=O)CCc1nc2sc3c(c2c(=O)[nH]1)CCCC3,"inconclusive: 2.94 µM [inhibitor, partial curve, poor fit]"
24,O=C(NCc1ccccc1)c1ccc(Br)cc1,"inconclusive: 11.7 µM [inhibitor, single point]"
25,COc1ccccc1OCCC(=O)Nc1nc(C)cs1,inactive

# Four consecutive records from above:
row,SMILES,Potency
18,CC1(C)CC(=O)c2cnc(NC(=O)CSC(=S)N3CCCCC3)nc2C1,"inconclusive: 4.15 µM [inhibitor, single point]"
19,CCCNC(=S)NC1CCCC1,"inconclusive: 10.4 µM [inhibitor, single point]"
20,C=CCSC1=N/C(=C\c2ccc3c(c2)OCO3)C(=O)S1,active: 0.415 µM
21,O=c1[nH]c(/C=C/c2cccc([N+](=O)[O-])c2)c([N+](=O)[O-])c(=O)[nH]1,"inconclusive: 18.5 µM [inhibitor, single point]"

# Next compounds follow:

row,SMILES,Potency
1,CCN1C(=O)/C(=c2\s/c(=C3\Sc4ccccc4N3C)c(=O)n2C)N(C)C1=S,inactive
2,O=C1C2CCCN2C(=O)N1CCCN1CCN(c2ccc([N+](=O)[O-])cc2)CC1 (stereo not drawn),"inconclusive: 13.1 µM [inhibitor, single point]"
3,CCNC(=S)N1CCC(c2nc3ccccc3s2)CC1,inactive
4,Cc1ccc(-n2nc3c(=O)n(C(C)C(=O)NCc4ccccc4Cl)nc(C)c3c2C)cc1 (stereo not drawn),"inconclusive: 4.15 µM [inhibitor, partial curve]"
5,CCN(CC)c1ccc(N2C(=O)CSC2=S)cc1,"inconclusive: 18.5 µM [inhibitor, partial curve, poor fit]"
6,COc1cc(CN2CCCCC2)ccc1OCc1ccccc1,"inconclusive: 10.4 µM [inhibitor, single point]"
7,Cc1ccc(-n2cccn2)c(CN2CCC(CO)(CCc3ccccc3)CC2)c1,"inconclusive: 11.7 µM [inhibitor, partial curve, poor fit]"
8,O=C1c2ccccc2-c2n[nH]c(=O)c3ccc(N4CCCCC4)c1c23,inactive
9,C[C@@H](C(=O)NCc1ccc(S(C)(=O)=O)cc1)[C@H]1C[C@]1(C)[C@H](NC(=O)OCc1ccccc1)c1ccccc1,"inconclusive: 18.5 µM [inhibitor, single point]"
10,C/C(=N\S(=O)(=O)c1ccc(C)cc1)N(C)C,inactive
11,Cc1ccc2c(c1)N(CC(=O)N1CCCC1)C(=O)c1cccnc1O2,inactive
12,COC(=O)/C=c1\sc2ncnn2c1=O,"inconclusive: 0.0738 µM [inhibitor, full curve, poor fit]"
13,Cc1ccc2[nH]c(=O)c(COC(=O)c3cccs3)cc2c1,inactive
14,Cn1nc(C(=O)NCC(=O)Nc2ccc(F)c(F)c2F)c2ccccc2c1=O,inactive
15,O=C(C1CCN(S(=O)(=O)N2CCC3(CC2)OCCO3)CC1)N1CCc2ccccc2C1,active: 5.22 µM
16,CC1c2ccsc2CCN1S(=O)(=O)c1ccccc1 (stereo not drawn),inactive
17,COC(=O)Nc1nnc(-c2ccccc2OC)s1,inactive
18,Cc1ccc(NC(=O)CN(C)C(=O)c2ccc3[nH]c4c(c3c2)CC(C)CC4)cc1 (stereo not drawn),inactive
19,O=Cc1ccc(OCc2ccc3c(c2)OCO3)cc1,"inconclusive: 18.5 µM [inhibitor, single point]"
20,O=C(N/N=C/c1ccc(Cl)cc1)c1n[nH]c2c1CCCC2,inactive
21,COc1cc(=O)n(C)c2c(OCC3OC(C)(C)OC3(C)C)cccc12 (stereo not drawn),"inconclusive: 11.7 µM [inhibitor, single point]"
22,CCN(c1ccc(C(=O)CN2C(=O)NC3(CCOc4ccccc43)C2=O)cc1)S(C)(=O)=O (stereo not drawn),inactive
23,N/C(=N\OC(=O)CCC1CCCC1)c1ccc([N+](=O)[O-])cc1,"inconclusive: 4.15 µM [inhibitor, partial curve, poor fit]"
24,CCOc1ccc(CN2CCN(Cc3cccc4nonc34)CC2CCO)cc1 (stereo not drawn),active: 14.7 µM
25,CCCCn1c(=O)c(C(=O)Nc2ccccn2)c(O)c2ccccc21,"inconclusive: 14.7 µM [inhibitor, single point]"

row,SMILES,Potency
1,CC(C)c1ccc(NC(=O)CCC(=O)NCc2ccco2)cc1,"inconclusive: 10.4 µM [inhibitor, partial curve]"
2,COc1ccc2nc(NC(=O)Nc3cccc4ccccc34)sc2c1,inactive
3,CC1CCCCC1NC(=O)CN(C)S(=O)(=O)c1ccc2c(c1)c(=O)n(C)c(=O)n2C (stereo not drawn),"inconclusive: 2.62 µM [inhibitor, partial curve, poor fit]"
4,CCc1cccc(NC(=O)CN(C)S(=O)(=O)c2cnc[nH]2)c1,inactive
5,O=C(Nc1ccc(Cl)cc1)N(Cc1nc2ccccc2c(=O)[nH]1)Cc1cccs1,active: 3.29 µM
6,Cc1ccc(N2C(=O)C3C4C=CC(CC4)C3C2=O)cc1Cl (stereo not drawn),active: 3.7 µM
7,CC(C)CC(=O)NC(=S)Nc1ccc(NC(=O)c2cccs2)cc1,active: 5.22 µM
8,CCOCCn1c(N2CCCC2)nc2c1c(=O)[nH]c(=O)n2C,"inconclusive: 11.7 µM [inhibitor, single point]"
9,Cc1cc(C)n(CCC(=O)N=Nc2c(O)[nH]c3ccccc23)n1,inactive
10,CC(=O)c1ccc(NC(=O)c2cc(-c3cccs3)on2)cc1,inactive
11,CCc1ccc(-c2cc(C)no2)cc1S(=O)(=O)NCCc1ccc(S(N)(=O)=O)cc1,"inconclusive: 2.33 µM [inhibitor, full curve, poor fit]"
12,O=C(CCN1CCN(Cc2ccccc2)CC1)NNC(=O)Nc1cccc(Cl)c1,inactive
13,COc1cccc(OCc2nnc(SCC(=O)NNC(=O)C3CCCCC3)n2C)c1,active: 13.1 µM
14,COc1cc2nc(=S)n3[nH]c(CCn4c(C)nc5ccccc54)nc3c2cc1OC,"inconclusive: 18.5 µM [inhibitor, single point]"
15,Cc1cc(OCC(=O)Nc2cc(C(C)(C)C)on2)ccc1[N+](=O)[O-],"inconclusive: 13.1 µM [inhibitor, single point]"
16,CCn1c(/C=C/c2ccccc2)nc2ccccc21,inactive
17,Cc1ccc(N=C2CCCN2Cc2ccccc2)c(C#N)c1,"inconclusive: 18.5 µM [inhibitor, single point]"
18,Cc1ccc(C(=O)NC(c2ccccc2)C(Cl)Cl)cc1 (stereo not drawn),"inconclusive: 18.5 µM [inhibitor, single point]"
19,CCNC(=S)N/N=C1\CCCCc2ccccc21,"inconclusive: 3.29 µM [inhibitor, partial curve]"
20,COc1ccc(S(=O)(=O)NCc2ccc3c(c2)cc(C)n3C)cc1,"inconclusive: 13.1 µM [inhibitor, single point]"
21,COc1ccc(C(=O)NC2CC2)cc1OC1CCN(Cc2ccccc2)CC1,"inconclusive: 1.65 µM [inhibitor, full curve, poor fit]"
22,CN1CCN(C(=O)CSc2nc3c(c(=O)n(C)c(=O)n3C)n2C)CC1,"inconclusive: 10.4 µM [inhibitor, partial curve]"
23,C/C(=N/NC(=O)c1cnccn1)c1cccs1,inactive

# From PubChem BioAssay AID504834 (National Center for Advancing Translational Sciences (NCATS), 2011)
